According to the supplement of paper PMC11546906:
Counter-ions that a name gives are not always drawn. The list shows a part of the results. Single values are uncertain here, since repeats match poorly.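 Screen of FDA-approved drugs, each combined with colistin at one-eighth of its MIC, against a multidrug-resistant mcr-1-positive clinical E. coli isolate; growth read as OD600 after 24 h. Bacteria without drug were the growth control and plain broth the blank. A combination counted as active when OD600 fell below 0.2.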

System: Escherichia coli 42 (mcr-1-positive clinical isolate)
Experiment: OD600 after 24 h growth with compound plus colistin (absorbance units (OD600)); higher = more bacterial growth (less inhibition)
Settings: first compound 25 µM; colistin concentration 0.5 ug/mL; incubation time 24 h; 37 °C

OD600, inactive:
CN/C(=N\CCSCc1nc[nH]c1C)NC#N [Cimetidine] + CCC(C)CCCC(=O)N[C@@H](CCN)C(=O)N[C@H](C(=O)N[C@@H](CCN)C(=O)N[C@H]1CCNC(=O)[C@H]([C@@H](C)O)NC(=O)[C@H](CCN)NC(=O)[C@H](CCN)NC(=O)[C@H](CC(C)C)NC(=O)[C@@H](CC(C)C)NC(=O)[C@H](CCN)NC1=O)[C@@H](C)O [colistin] 1.09
COc1c(C)c2c(c(O)c1C/C=C(\C)CCC(=O)OCCN1CCOCC1)C(=O)OC2 + CCC(C)CCCC(=O)N[C@@H](CCN)C(=O)N[C@H](C(=O)N[C@@H](CCN)C(=O)N[C@H]1CCNC(=O)[C@H]([C@@H](C)O)NC(=O)[C@H](CCN)NC(=O)[C@H](CCN)NC(=O)[C@H](CC(C)C)NC(=O)[C@@H](CC(C)C)NC(=O)[C@H](CCN)NC1=O)[C@@H](C)O [colistin] 1.01
Nc1nc(=O)n([C@@H]2CS[C@H](CO)O2)cc1F [Emtricitabine] + CCC(C)CCCC(=O)N[C@@H](CCN)C(=O)N[C@H](C(=O)N[C@@H](CCN)C(=O)N[C@H]1CCNC(=O)[C@H]([C@@H](C)O)NC(=O)[C@H](CCN)NC(=O)[C@H](CCN)NC(=O)[C@H](CC(C)C)NC(=O)[C@@H](CC(C)C)NC(=O)[C@H](CCN)NC1=O)[C@@H](C)O [colistin] 0.905
Nc1ccn([C@@H]2O[C@H](CO)[C@@H](O)C2(F)F)c(=O)n1 [Gemcitabine] + CCC(C)CCCC(=O)N[C@@H](CCN)C(=O)N[C@H](C(=O)N[C@@H](CCN)C(=O)N[C@H]1CCNC(=O)[C@H]([C@@H](C)O)NC(=O)[C@H](CCN)NC(=O)[C@H](CCN)NC(=O)[C@H](CC(C)C)NC(=O)[C@@H](CC(C)C)NC(=O)[C@H](CCN)NC1=O)[C@@H](C)O [colistin] 1.25
CCN(c1cc(-c2ccc(CN3CCOCC3)cc2)cc(C(=O)NCc2c(C)cc(C)[nH]c2=O)c1C)C1CCOCC1 [Tazemetostat] + CCC(C)CCCC(=O)N[C@@H](CCN)C(=O)N[C@H](C(=O)N[C@@H](CCN)C(=O)N[C@H]1CCNC(=O)[C@H]([C@@H](C)O)NC(=O)[C@H](CCN)NC(=O)[C@H](CCN)NC(=O)[C@H](CC(C)C)NC(=O)[C@@H](CC(C)C)NC(=O)[C@H](CCN)NC1=O)[C@@H](C)O [colistin] 0.97
COc1cc(NC(C)CCCN)c2ncccc2c1 (centres undefined) [Primaquine diphosphate] + CCC(C)CCCC(=O)N[C@@H](CCN)C(=O)N[C@H](C(=O)N[C@@H](CCN)C(=O)N[C@H]1CCNC(=O)[C@H]([C@@H](C)O)NC(=O)[C@H](CCN)NC(=O)[C@H](CCN)NC(=O)[C@H](CC(C)C)NC(=O)[C@@H](CC(C)C)NC(=O)[C@H](CCN)NC1=O)[C@@H](C)O [colistin] 1.06
Cc1ccc(Cl)c(Nc2ccccc2C(=O)O)c1Cl [Meclofenamic acid sodium] + CCC(C)CCCC(=O)N[C@@H](CCN)C(=O)N[C@H](C(=O)N[C@@H](CCN)C(=O)N[C@H]1CCNC(=O)[C@H]([C@@H](C)O)NC(=O)[C@H](CCN)NC(=O)[C@H](CCN)NC(=O)[C@H](CC(C)C)NC(=O)[C@@H](CC(C)C)NC(=O)[C@H](CCN)NC1=O)[C@@H](C)O [colistin] 1.13
C=C1[C@H](CO)[C@@H](O)C[C@@H]1n1cnc2c(=O)[nH]c(N)nc21 [Entecavir] + CCC(C)CCCC(=O)N[C@@H](CCN)C(=O)N[C@H](C(=O)N[C@@H](CCN)C(=O)N[C@H]1CCNC(=O)[C@H]([C@@H](C)O)NC(=O)[C@H](CCN)NC(=O)[C@H](CCN)NC(=O)[C@H](CC(C)C)NC(=O)[C@@H](CC(C)C)NC(=O)[C@H](CCN)NC1=O)[C@@H](C)O [colistin] 0.975
C[N+](C)(C)C[C@@H](O)CC(=O)[O-] [D-Carnitine hydrochloride] + CCC(C)CCCC(=O)N[C@@H](CCN)C(=O)N[C@H](C(=O)N[C@@H](CCN)C(=O)N[C@H]1CCNC(=O)[C@H]([C@@H](C)O)NC(=O)[C@H](CCN)NC(=O)[C@H](CCN)NC(=O)[C@H](CC(C)C)NC(=O)[C@@H](CC(C)C)NC(=O)[C@H](CCN)NC1=O)[C@@H](C)O [colistin] 0.993

Looked up one by one from the entries so far:
OD600, inactive:
C[N+](C)(C)C[C@@H](O)CC(=O)[O-] [D-Carnitine hydrochloride] + CCC(C)CCCC(=O)N[C@@H](CCN)C(=O)N[C@H](C(=O)N[C@@H](CCN)C(=O)N[C@H]1CCNC(=O)[C@H]([C@@H](C)O)NC(=O)[C@H](CCN)NC(=O)[C@H](CCN)NC(=O)[C@H](CC(C)C)NC(=O)[C@@H](CC(C)C)NC(=O)[C@H](CCN)NC1=O)[C@@H](C)O [colistin] 0.993
Nc1nc(=O)n([C@@H]2CS[C@H](CO)O2)cc1F [Emtricitabine] + CCC(C)CCCC(=O)N[C@@H](CCN)C(=O)N[C@H](C(=O)N[C@@H](CCN)C(=O)N[C@H]1CCNC(=O)[C@H]([C@@H](C)O)NC(=O)[C@H](CCN)NC(=O)[C@H](CCN)NC(=O)[C@H](CC(C)C)NC(=O)[C@@H](CC(C)C)NC(=O)[C@H](CCN)NC1=O)[C@@H](C)O [colistin] 0.905
